Experimental data as given in the supplement of paper PMC12823440, “Inhibitors supercharge kinase turnover through native proteolytic circuits” (Nature, 2025).
Where a name gives a salt, the structure may show the parent alone. The list shows a part of the results. Hit calls seldom repeat between salt and free forms of one compound.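 Kinases, fused to nanoluciferase, were expressed in K562 cells; luminescence was measured every 4 h from 2 to 18 h as percent of control (DMSO = 100%, positive control = 0%). A time point is decreased if signal falls significantly (2 sigma). Hits were called by the authors by a rule that is not shown; the count of time points alone does not decide it.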

Protein sequences, listed by entry. Tags and fused reporters are not part of them. Lines headed by an entry give the natural chain unless they say otherwise; changes in a name come on top.
UniProt Q15208: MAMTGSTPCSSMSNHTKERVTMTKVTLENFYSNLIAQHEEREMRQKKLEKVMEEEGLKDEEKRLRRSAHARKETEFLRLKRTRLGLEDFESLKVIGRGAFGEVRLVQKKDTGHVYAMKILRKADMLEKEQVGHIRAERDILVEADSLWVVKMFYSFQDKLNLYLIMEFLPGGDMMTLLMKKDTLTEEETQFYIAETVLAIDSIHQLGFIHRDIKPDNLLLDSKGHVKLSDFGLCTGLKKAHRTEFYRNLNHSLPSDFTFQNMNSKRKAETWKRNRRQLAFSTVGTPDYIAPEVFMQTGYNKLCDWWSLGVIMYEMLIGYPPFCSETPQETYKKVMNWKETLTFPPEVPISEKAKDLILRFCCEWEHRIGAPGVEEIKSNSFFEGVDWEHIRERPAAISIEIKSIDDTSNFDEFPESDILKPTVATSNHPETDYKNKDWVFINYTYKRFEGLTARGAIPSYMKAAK
UniProt P42680: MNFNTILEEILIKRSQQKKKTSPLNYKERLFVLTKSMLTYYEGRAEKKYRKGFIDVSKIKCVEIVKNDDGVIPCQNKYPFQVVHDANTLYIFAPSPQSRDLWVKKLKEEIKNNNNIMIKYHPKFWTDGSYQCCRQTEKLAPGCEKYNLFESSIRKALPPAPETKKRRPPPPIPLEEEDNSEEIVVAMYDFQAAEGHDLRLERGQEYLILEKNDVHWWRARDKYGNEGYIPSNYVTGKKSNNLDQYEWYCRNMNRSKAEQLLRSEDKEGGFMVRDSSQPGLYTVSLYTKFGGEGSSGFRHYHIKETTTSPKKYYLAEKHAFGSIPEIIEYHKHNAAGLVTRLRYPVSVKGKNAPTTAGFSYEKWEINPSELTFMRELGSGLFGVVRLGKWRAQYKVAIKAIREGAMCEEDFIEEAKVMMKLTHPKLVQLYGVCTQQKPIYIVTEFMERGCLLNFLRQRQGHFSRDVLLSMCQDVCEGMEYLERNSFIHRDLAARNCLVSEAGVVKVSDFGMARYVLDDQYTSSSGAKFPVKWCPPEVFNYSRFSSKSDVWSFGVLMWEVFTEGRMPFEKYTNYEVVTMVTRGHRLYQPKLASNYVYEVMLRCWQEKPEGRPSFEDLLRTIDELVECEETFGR
UniProt P07947, whole entry, looked up: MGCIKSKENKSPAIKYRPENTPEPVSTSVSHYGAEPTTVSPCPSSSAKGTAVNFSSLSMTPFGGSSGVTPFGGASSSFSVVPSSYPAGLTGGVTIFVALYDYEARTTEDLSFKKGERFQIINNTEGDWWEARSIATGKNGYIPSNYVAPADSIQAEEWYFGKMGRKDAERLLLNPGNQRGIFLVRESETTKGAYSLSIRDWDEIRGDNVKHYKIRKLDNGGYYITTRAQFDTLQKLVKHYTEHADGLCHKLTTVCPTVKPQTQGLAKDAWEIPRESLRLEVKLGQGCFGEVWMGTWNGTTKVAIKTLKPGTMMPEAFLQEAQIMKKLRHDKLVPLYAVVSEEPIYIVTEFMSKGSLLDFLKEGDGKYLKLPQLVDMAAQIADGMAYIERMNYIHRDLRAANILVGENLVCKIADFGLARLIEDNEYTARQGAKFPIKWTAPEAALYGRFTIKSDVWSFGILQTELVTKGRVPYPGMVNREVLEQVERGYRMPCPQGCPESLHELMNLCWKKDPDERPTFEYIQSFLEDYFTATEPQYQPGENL
UniProt P00519, whole entry: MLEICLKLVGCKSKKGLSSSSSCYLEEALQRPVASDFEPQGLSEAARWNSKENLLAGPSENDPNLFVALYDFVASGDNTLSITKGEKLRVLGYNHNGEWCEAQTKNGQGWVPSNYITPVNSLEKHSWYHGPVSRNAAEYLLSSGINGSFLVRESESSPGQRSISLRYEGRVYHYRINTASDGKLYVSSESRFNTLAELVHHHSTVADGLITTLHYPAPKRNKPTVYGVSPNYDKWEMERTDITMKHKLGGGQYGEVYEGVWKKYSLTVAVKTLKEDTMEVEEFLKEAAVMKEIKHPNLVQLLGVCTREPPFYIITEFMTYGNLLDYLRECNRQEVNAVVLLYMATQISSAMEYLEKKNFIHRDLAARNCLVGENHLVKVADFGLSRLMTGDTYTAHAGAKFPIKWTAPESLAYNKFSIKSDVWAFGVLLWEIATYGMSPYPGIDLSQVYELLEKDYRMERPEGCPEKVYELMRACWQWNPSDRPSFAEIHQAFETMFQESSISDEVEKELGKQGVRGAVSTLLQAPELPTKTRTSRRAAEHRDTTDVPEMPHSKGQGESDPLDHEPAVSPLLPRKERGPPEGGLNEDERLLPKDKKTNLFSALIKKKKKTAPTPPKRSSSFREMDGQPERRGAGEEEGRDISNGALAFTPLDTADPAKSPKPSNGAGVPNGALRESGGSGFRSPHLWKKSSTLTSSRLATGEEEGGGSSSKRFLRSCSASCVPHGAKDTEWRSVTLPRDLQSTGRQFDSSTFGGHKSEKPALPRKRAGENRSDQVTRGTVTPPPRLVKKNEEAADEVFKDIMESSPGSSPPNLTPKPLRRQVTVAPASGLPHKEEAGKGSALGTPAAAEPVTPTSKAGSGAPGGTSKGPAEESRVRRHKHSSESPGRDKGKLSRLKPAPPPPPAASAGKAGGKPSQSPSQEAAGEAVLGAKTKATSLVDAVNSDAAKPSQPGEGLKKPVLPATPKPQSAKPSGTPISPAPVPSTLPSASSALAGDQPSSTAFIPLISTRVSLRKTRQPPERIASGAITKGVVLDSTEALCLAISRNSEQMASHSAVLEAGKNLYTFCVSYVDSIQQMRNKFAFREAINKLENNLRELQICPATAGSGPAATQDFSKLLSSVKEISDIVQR
UniProt Q9UM73: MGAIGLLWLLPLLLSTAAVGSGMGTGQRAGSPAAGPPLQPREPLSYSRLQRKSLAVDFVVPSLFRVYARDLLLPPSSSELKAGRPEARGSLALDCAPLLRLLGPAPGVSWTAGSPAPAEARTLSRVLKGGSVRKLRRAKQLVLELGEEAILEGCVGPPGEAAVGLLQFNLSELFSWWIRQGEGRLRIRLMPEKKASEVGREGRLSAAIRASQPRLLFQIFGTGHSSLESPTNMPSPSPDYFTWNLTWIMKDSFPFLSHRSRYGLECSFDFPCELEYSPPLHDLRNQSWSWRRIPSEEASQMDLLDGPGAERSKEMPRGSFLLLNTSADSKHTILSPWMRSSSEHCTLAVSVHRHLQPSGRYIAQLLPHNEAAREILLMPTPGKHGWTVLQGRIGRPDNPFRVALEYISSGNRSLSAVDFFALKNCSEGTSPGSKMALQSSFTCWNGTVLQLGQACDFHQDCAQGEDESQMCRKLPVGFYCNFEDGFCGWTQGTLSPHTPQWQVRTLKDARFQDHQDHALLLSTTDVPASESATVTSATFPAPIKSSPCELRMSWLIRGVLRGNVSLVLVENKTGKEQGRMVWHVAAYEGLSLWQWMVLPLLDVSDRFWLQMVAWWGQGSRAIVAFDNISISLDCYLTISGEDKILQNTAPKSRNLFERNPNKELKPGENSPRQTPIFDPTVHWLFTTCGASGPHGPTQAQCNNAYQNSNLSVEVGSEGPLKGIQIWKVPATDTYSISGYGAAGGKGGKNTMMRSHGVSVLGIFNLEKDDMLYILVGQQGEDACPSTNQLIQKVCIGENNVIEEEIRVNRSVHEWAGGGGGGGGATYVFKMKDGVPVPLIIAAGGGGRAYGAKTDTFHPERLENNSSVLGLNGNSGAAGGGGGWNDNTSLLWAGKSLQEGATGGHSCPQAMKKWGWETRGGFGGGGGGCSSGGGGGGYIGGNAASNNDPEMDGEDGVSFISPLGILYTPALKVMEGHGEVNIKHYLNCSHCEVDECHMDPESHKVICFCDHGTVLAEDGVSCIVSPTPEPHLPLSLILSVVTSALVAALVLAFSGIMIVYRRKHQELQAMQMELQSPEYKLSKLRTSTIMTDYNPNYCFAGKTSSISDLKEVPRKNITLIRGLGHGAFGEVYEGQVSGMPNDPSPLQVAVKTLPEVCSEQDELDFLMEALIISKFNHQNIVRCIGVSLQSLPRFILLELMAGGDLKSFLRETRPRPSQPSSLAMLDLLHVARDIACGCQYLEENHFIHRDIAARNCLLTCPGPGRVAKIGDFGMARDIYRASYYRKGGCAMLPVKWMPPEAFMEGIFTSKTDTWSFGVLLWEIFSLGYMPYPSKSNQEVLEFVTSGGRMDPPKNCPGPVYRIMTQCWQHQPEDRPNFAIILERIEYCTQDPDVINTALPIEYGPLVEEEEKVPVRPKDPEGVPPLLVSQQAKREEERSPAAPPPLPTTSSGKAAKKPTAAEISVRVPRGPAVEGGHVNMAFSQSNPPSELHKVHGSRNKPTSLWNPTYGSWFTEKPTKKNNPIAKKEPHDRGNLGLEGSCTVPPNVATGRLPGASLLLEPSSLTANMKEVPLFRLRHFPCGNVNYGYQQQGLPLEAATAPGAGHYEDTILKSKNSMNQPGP
UniProt Q96GD4, whole entry: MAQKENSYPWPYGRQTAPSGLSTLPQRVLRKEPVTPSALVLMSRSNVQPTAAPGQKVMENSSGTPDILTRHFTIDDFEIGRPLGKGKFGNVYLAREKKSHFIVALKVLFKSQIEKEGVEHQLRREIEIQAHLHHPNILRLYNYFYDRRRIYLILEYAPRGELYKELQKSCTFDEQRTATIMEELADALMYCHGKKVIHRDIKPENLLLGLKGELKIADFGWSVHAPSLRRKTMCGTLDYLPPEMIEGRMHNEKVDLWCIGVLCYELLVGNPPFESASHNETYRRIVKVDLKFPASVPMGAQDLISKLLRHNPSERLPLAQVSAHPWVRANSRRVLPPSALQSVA
UniProt Q9UQB9: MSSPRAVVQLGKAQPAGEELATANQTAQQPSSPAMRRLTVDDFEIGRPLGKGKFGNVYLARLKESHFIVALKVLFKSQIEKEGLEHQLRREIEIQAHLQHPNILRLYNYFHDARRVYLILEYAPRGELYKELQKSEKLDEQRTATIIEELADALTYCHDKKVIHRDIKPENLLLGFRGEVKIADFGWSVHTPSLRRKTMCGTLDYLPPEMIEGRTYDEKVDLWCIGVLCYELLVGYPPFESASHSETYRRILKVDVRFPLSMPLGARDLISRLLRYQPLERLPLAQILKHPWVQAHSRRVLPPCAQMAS
UniProt P51813: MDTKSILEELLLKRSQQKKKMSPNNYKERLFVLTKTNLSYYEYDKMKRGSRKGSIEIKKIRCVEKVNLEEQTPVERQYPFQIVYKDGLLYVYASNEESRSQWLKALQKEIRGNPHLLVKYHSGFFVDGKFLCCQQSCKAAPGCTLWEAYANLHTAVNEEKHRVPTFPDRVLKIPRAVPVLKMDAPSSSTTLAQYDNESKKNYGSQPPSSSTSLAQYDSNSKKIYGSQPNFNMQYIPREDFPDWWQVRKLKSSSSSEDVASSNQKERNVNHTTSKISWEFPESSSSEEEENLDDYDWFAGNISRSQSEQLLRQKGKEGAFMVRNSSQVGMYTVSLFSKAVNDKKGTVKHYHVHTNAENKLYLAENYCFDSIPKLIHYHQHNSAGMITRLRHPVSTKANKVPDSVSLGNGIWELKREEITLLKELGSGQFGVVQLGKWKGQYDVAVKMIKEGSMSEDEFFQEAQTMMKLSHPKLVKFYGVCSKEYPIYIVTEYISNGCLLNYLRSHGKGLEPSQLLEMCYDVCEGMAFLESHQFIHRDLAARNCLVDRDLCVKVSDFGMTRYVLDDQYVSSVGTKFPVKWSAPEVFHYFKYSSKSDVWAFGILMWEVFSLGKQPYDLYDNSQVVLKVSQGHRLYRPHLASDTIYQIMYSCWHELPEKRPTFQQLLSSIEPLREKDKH
UniProt Q06187: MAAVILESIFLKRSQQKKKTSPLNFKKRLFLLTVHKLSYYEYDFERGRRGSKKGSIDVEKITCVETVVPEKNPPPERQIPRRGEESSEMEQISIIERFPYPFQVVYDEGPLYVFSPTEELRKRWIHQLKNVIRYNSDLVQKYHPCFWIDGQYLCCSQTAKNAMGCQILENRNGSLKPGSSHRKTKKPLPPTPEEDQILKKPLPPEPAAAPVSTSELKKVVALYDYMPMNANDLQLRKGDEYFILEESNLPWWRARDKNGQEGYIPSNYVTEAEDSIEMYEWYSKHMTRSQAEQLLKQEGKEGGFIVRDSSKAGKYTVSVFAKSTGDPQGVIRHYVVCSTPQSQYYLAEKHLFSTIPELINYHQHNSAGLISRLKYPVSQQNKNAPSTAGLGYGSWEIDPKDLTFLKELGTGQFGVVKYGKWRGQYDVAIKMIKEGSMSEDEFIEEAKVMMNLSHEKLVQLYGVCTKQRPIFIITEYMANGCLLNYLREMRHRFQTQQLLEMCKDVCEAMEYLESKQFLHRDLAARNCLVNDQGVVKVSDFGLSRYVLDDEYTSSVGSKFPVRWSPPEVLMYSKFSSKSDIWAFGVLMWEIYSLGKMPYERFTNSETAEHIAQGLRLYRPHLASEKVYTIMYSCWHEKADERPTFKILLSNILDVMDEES

Key:
Conditions in all cases: K562; 2-18 h
STK38 = STK38 (UniProt Q15208); experiment: kinase-Nluc reporter destabilization hit call (1 = scored as downregulated) (binary); higher = compound decreases kinase abundance
SYK = SYK (UniProt P43405); experiment: as above
TEC = TEC (UniProt P42680); experiment: as above
TYK2 = TYK2 (UniProt P29597); experiment: as above
ULK3 = ULK3 (UniProt Q6PHR2); experiment: as above
YES1 = YES1 (UniProt P07947); experiment: as above
ZAK = ZAK (UniProt Q9NYL2); experiment: as above
ZAP70 = ZAP70 (UniProt P43403); experiment: as above
ABL1 = ABL1 (UniProt P00519); experiment: number of time points (of 5) at which kinase-Nluc abundance scored as decreased, DMSO-normalised (count); higher = more persistent destabilization
AKT1 = AKT1 (UniProt P31749); experiment: as above
ALK = ALK (UniProt Q9UM73); experiment: as above
ARAF = ARAF (UniProt P10398); experiment: as above
AURKA = AURKA (UniProt O14965); experiment: as above
AURKB = AURKB (UniProt Q96GD4); experiment: as above
AURKC = AURKC (UniProt Q9UQB9); experiment: as above
BLK = BLK (UniProt P51451); experiment: as above
BMX = BMX (UniProt P51813); experiment: as above
BRAF = BRAF (UniProt P15056); experiment: as above
BRAF_V600E = experiment: as above
BTK = BTK (UniProt Q06187); experiment: as above

Compound	kinase-Nluc reporter destabilization hit call (STK38)	kinase-Nluc reporter destabilization hit call (SYK)	kinase-Nluc reporter destabilization hit call (TEC)	kinase-Nluc reporter destabilization hit call (TYK2)	kinase-Nluc reporter destabilization hit call (ULK3)	kinase-Nluc reporter destabilization hit call (YES1)	kinase-Nluc reporter destabilization hit call (ZAK)	kinase-Nluc reporter destabilization hit call (ZAP70)	number of time points (ABL1)	number of time points (AKT1)	number of time points (ALK)	number of time points (ARAF)	number of time points (AURKA)	number of time points (AURKB)	number of time points (AURKC)	number of time points (BLK)	number of time points (BMX)	number of time points (BRAF)	number of time points (BRAF_V600E)	number of time points (BTK)
Cc1cc(-n2c(=O)ccc3c[nH]c4nccc-4c32)ccc1F (10 µM)	inactive: 0	inactive: 0	inactive: 0	inactive: 0	inactive: 0	inactive: 0	inactive: 0	inactive: 0	1	0	0	0	0	0	0	0	0	0	0	0
O=C(Nc1cc(Cl)cc2c1[nH]c1cnccc12)c1cccnc1 (10 µM)	inactive: 0	inactive: 0	inactive: 0	inactive: 0	inactive: 0	inactive: 0	inactive: 0	inactive: 0	0	0	0	0	0	0	0	0	0	0	0	0
CC1=C(C(=O)Nc2cc3cn[nH]c3cc2F)C(c2ccc(C(F)(F)F)cc2)CC(=O)N1 (stereo not given) (10 µM)	inactive: 0	inactive: 0	inactive: 0	inactive: 0	inactive: 0	inactive: 0	inactive: 0	inactive: 0	0	0	0	0	0	0	0	0	0	0	0	0
Nc1ncnc2c1nc(Br)n2[C@@H]1O[C@@H]2COP(=O)(O)O[C@H]2[C@H]1O [8-Bromo-cAMP sodium salt] (10 µM)	inactive: 0	inactive: 0	inactive: 0	inactive: 0	inactive: 0	inactive: 0	inactive: 0	inactive: 0	0	0	0	0	0	0	0	0	0	0	0	0
CCCn1/c(=N/C(=O)c2cccc(C(N)=O)c2)[nH]c2ccccc21 [Takinib] (10 µM)	inactive: 0	inactive: 0	inactive: 0	inactive: 0	inactive: 0	inactive: 0	inactive: 0	inactive: 0	0	0	0	0	0	0	0	0	0	0	0	0
COc1ccc2c(Oc3ccc4c(C(=O)Nc5ccccc5N)cccc4c3)ccnc2c1 [Chiauranib] (10 µM)	inactive: 0	inactive: 0	inactive: 0	inactive: 0	inactive: 0	inactive: 0	inactive: 0	inactive: 0	4	0	3	0	0	4	0	2	0	0	0	0
COc1cc2c(cc1O)C[C@H]1c3cc(O)c(OC)cc3CC[N@@+]1(C)C2 [Phellodendrine] (10 µM)	inactive: 0	inactive: 0	inactive: 0	inactive: 0	inactive: 0	inactive: 0	inactive: 0	inactive: 0	0	0	0	0	0	0	0	0	0	0	0	0
CC(Sc1nc2c(cnn2-c2cccc(Cl)c2)c(=O)[nH]1)C(N)=O (stereo not given) (10 µM)	inactive: 0	inactive: 0	inactive: 0	inactive: 0	inactive: 0	inactive: 0	inactive: 0	inactive: 0	0	0	0	0	0	0	0	0	0	0	1	0
COc1cc(-c2cc(OP(=O)(O)O)cc(-c3cc(OC)c(OC)c(OC)c3)c2)cc(OC)c1OC [Stafia-1] (10 µM)	inactive: 0	inactive: 0	inactive: 0	inactive: 0	inactive: 0	inactive: 0	inactive: 0	inactive: 0	0	0	0	0	0	0	0	0	0	0	0	0
Cc1cc(O)c2c(c1)C(=O)c1cccc(O)c1C2=O [Chrysophanol] (2 µM)	inactive: 0	inactive: 0	inactive: 0	inactive: 0	inactive: 0	inactive: 0	inactive: 0	inactive: 0	0	0	0	0	0	0	0	0	0	0	0	0
CC(C)=CCC/C(C)=C/CC/C(C)=C/C=C/C(C)=C/C(=O)O [Peretinoin] (10 µM)	inactive: 0	inactive: 0	inactive: 0	inactive: 0	inactive: 0	inactive: 0	inactive: 0	inactive: 0	0	0	0	0	0	0	0	0	0	0	0	0
